The list shows a part of the results.
What follows are sequences tested against OsWRKY34 (Oryza sativa, UniProt Q0JBA9 1-250) (assay: protein-binding microarray (RPBM); PBS, 2% BSA, 51.3 ng/ul salmon testes DNA, 50 uM zinc acetate, 200 nM TF, 25 C, 1 h; high values mean tight binding). Settings: protein: recombinant; tags: N-terminal polyhistidine and DsRed monomer fusion (pET32a); label: CyDye5-dUTP incorporated in the synthesized complementary strand; 3' TTTTT single-stranded linker to array surface; dsDNA, one strand shown.
Outline: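 Using Ni–NTA, transcription factors fused N-terminally to polyhistidine and DsRed were purified after expression in E. coli BL21-CodonPlus. These were incubated at 200 nM with a blocked, double-stranded custom Agilent array for 1 h at 25 °C in a buffer containing 50 µM zinc acetate, and the array was washed. The binding signal is per-feature fluorescence intensity (arbitrary units) on an Axon 4000B scanner.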

Amino acid sequences for entries named in this document (tags omitted).
UniProt Q0JBA9, entry or part of it: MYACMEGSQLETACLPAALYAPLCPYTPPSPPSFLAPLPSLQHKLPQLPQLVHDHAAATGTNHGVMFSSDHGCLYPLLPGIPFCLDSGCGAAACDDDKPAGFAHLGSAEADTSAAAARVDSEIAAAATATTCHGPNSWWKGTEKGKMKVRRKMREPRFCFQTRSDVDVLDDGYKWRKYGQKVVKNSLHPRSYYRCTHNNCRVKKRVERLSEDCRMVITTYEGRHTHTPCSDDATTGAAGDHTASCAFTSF

| Sequence | binding signal |
| --- | --- |
| TCTCTCATCCGATTCGTATGTTTTTTCCTGCGGTCCAATCCGGAGTCACCTAGTGCAG | 9580 fluorescence intensity (a.u.) |
| GTTGCCGTTATCTTGGACATGTCATTGTCATCCTATAGTCCGGAGTCACCTAGTGCAG | 12400 fluorescence intensity (a.u.) |
| ACCGGAACCATGTCCATTCTATATCAACAAAGCATCTACCCGGAGTCACCTAGTGCAG | 8410 fluorescence intensity (a.u.) |
| GACGCGAAATCCCAATTTTCCCCACCAGCCGCCGCCACCTCGGAGTCACCTAGTGCAG | 10800 fluorescence intensity (a.u.) |
| GGGTCAGGGTGGGCGTGGATTGATATTTTAATACGAATAACGGAGTCACCTAGTGCAG | 14300 fluorescence intensity (a.u.) |
| TTAGTAGTGGGCTATACTATTAAATTTAATTTGCTCTAATCGGAGTCACCTAGTGCAG | 8250 fluorescence intensity (a.u.) |
| CTCGCCCTCGACACGCTGGAAGTTTGTGTACGCGTCATTCCGGAGTCACCTAGTGCAG | 9080 fluorescence intensity (a.u.) |
| AATTTTGCTGGCCTTGCTGCCTCTCTTGTGCTTACTACTTCGGAGTCACCTAGTGCAG | 10100 fluorescence intensity (a.u.) |
| CATAAATTATTCCTGTCTTGTAGTACATCCATCCATCCATCGGAGTCACCTAGTGCAG | 9450 fluorescence intensity (a.u.) |
| ACGAACGGTCAAACATGTGCTAAAAAGTCAACGGTGTCAACGGAGTCACCTAGTGCAG | 15900 fluorescence intensity (a.u.) |
| GCATTTTACACGTTGGCTTGGGCGCGCCCACCGTACTGTACGGAGTCACCTAGTGCAG | 8830 fluorescence intensity (a.u.) |
| TGTCTCATGTCAGGAGGCTCCTGTGTTGCCCAAGTCTTTACGGAGTCACCTAGTGCAG | 11700 fluorescence intensity (a.u.) |
| CCCACTGGCGACTCTTCCTCACCGCCACCAACGCCGACGACGGAGTCACCTAGTGCAG | 9430 fluorescence intensity (a.u.) |
| GGGGTAATTTCTCTGTGTTTTGAGTTGAGGGAGATAATTCCGGAGTCACCTAGTGCAG | 16900 fluorescence intensity (a.u.) |
| AAAGTGAATGTTGGAGGTTTGTGATTGGTTGGGAGGAGAACGGAGTCACCTAGTGCAG | 8200 fluorescence intensity (a.u.) |
| CTCTCACAACCAGTCAACCACAACCATCCGTTCGATTGATCGGAGTCACCTAGTGCAG | 8320 fluorescence intensity (a.u.) |
| TTTATACATATGTGTTTATCATACCTCACGTGTCGTATATCGGAGTCACCTAGTGCAG | 8040 fluorescence intensity (a.u.) |
| ATGTCCTCCTCTCGTTGACATCTTGACTTTCGTTGCCACCCGGAGTCACCTAGTGCAG | 8790 fluorescence intensity (a.u.) |
| CGCCCACCGCCGCCGCCGCCGCCGCCCATCCTCCTTCCTCCGGAGTCACCTAGTGCAG | 9680 fluorescence intensity (a.u.) |
| TTTACATATCTATCTTTTTTTTTTGTTTTTTCTCGCTTTTCGGAGTCACCTAGTGCAG | 8460 fluorescence intensity (a.u.) |
| CGGCGCTCTCCTCCACCTCCGCGGCACATCCATCTTTTTCCGGAGTCACCTAGTGCAG | 9780 fluorescence intensity (a.u.) |
| ATCTAACTTCACTTTTTCAAGTTTGCATTTGATCCTATTTCGGAGTCACCTAGTGCAG | 8660 fluorescence intensity (a.u.) |
| CCCTAGAGGAGGGAAGGAGGAAGGGGATGGACAAAGTAGACGGAGTCACCTAGTGCAG | 8960 fluorescence intensity (a.u.) |
| GGAGTACAACAGCAAAGCTTCCAACACCGTCCGATTCTCACGGAGTCACCTAGTGCAG | 8620 fluorescence intensity (a.u.) |
| GGCCCAATTTTGTGAGCCCAAACTTCTCGCGTGTCCTTCTCGGAGTCACCTAGTGCAG | 9600 fluorescence intensity (a.u.) |
| ACTACAGAGTTATGGTGGATTTTGTGCTGTTACCTATTTGCGGAGTCACCTAGTGCAG | 8420 fluorescence intensity (a.u.) |
| CAGCCTCTTGTTTCTCTGCCTTTTTAGTCCATCGCCTGACCGGAGTCACCTAGTGCAG | 16000 fluorescence intensity (a.u.) |

13 entries from above, tab-delimited:
Sequence	binding signal
CATAAATTATTCCTGTCTTGTAGTACATCCATCCATCCATCGGAGTCACCTAGTGCAG	9450 fluorescence intensity (a.u.)
ACGAACGGTCAAACATGTGCTAAAAAGTCAACGGTGTCAACGGAGTCACCTAGTGCAG	15900 fluorescence intensity (a.u.)
GCATTTTACACGTTGGCTTGGGCGCGCCCACCGTACTGTACGGAGTCACCTAGTGCAG	8830 fluorescence intensity (a.u.)
TGTCTCATGTCAGGAGGCTCCTGTGTTGCCCAAGTCTTTACGGAGTCACCTAGTGCAG	11700 fluorescence intensity (a.u.)
CCCACTGGCGACTCTTCCTCACCGCCACCAACGCCGACGACGGAGTCACCTAGTGCAG	9430 fluorescence intensity (a.u.)
GGGGTAATTTCTCTGTGTTTTGAGTTGAGGGAGATAATTCCGGAGTCACCTAGTGCAG	16900 fluorescence intensity (a.u.)
AAAGTGAATGTTGGAGGTTTGTGATTGGTTGGGAGGAGAACGGAGTCACCTAGTGCAG	8200 fluorescence intensity (a.u.)
CTCTCACAACCAGTCAACCACAACCATCCGTTCGATTGATCGGAGTCACCTAGTGCAG	8320 fluorescence intensity (a.u.)
TTTATACATATGTGTTTATCATACCTCACGTGTCGTATATCGGAGTCACCTAGTGCAG	8040 fluorescence intensity (a.u.)
ATGTCCTCCTCTCGTTGACATCTTGACTTTCGTTGCCACCCGGAGTCACCTAGTGCAG	8790 fluorescence intensity (a.u.)
CGCCCACCGCCGCCGCCGCCGCCGCCCATCCTCCTTCCTCCGGAGTCACCTAGTGCAG	9680 fluorescence intensity (a.u.)
TTTACATATCTATCTTTTTTTTTTGTTTTTTCTCGCTTTTCGGAGTCACCTAGTGCAG	8460 fluorescence intensity (a.u.)
CGGCGCTCTCCTCCACCTCCGCGGCACATCCATCTTTTTCCGGAGTCACCTAGTGCAG	9780 fluorescence intensity (a.u.)

Further results follow:

| Sequence | binding signal |
| --- | --- |
| GTCCTTTACACTGATCCTGCACATCGCTCACTGTTTTCTTCGGAGTCACCTAGTGCAG | 16800 fluorescence intensity (a.u.) |
| GAGATCGTTATCCTTTACATGTCATTTGTTAGTTGGCATTCGGAGTCACCTAGTGCAG | 8970 fluorescence intensity (a.u.) |
| AAAAATATATCCAAGCAAATTCACACAGTCAAGTTCACTCCGGAGTCACCTAGTGCAG | 14800 fluorescence intensity (a.u.) |
| ATTTTAATCGCGTTCGTATATGTTCTGTGAGAATAGTTTCCGGAGTCACCTAGTGCAG | 10800 fluorescence intensity (a.u.) |
| CGTTTCCGTCTCCGCCCGCCCGCCCGCCGTCGTGCGCGCCCGGAGTCACCTAGTGCAG | 13100 fluorescence intensity (a.u.) |
| CTTTTTTATTGATGCTCCAACCTAGTTTCACATTTGATTTCGGAGTCACCTAGTGCAG | 8510 fluorescence intensity (a.u.) |
| CGTGTGGGTGGGTGGGTGGAGTGGACTGGTTTCTGTGAGCCGGAGTCACCTAGTGCAG | 18500 fluorescence intensity (a.u.) |
| ACCGTCAACGACCGTTGACTGCGCCACAATCAAGCACAGTCGGAGTCACCTAGTGCAG | 8050 fluorescence intensity (a.u.) |
| AAGAGTACGGGTGGGGATGCTTTGGAGTTCACTCCAACTCCGGAGTCACCTAGTGCAG | 10300 fluorescence intensity (a.u.) |
| GGCCATTGCTGACCTGCTGCCTCTACCTGCTTCTTCCTCACGGAGTCACCTAGTGCAG | 9990 fluorescence intensity (a.u.) |
| TAGATCATCATTTCGTTCGTCACAGCCTTGTACAATCTTCCGGAGTCACCTAGTGCAG | 9200 fluorescence intensity (a.u.) |
| GTCTTTTGATTCTTGACTGCAGACCAATTTCTGTATTCCACGGAGTCACCTAGTGCAG | 10400 fluorescence intensity (a.u.) |
| TTTCCCCTATGCACCGAGTGGTTCGGTTGTACCTTATTTTCGGAGTCACCTAGTGCAG | 8670 fluorescence intensity (a.u.) |
| TCATCCTATTTCGTTTTTTTTTTTACTCTTTTACCCTCCGCGGAGTCACCTAGTGCAG | 10300 fluorescence intensity (a.u.) |
| AACACACTTACCTACCACTACCGGGCACCACAGACTACTCCGGAGTCACCTAGTGCAG | 9820 fluorescence intensity (a.u.) |
| AGGTACTATGGGCTTAACTTTCCTCGGTTGCCCAGCAACTCGGAGTCACCTAGTGCAG | 8180 fluorescence intensity (a.u.) |
| GGGTCGTTTTTTTGGCGGTTAAATTATCTGGGTCTGTTCGCGGAGTCACCTAGTGCAG | 13500 fluorescence intensity (a.u.) |
| ACACACACATATATACTTTTTTCTTGGTGTATTAGTAAGCCGGAGTCACCTAGTGCAG | 8460 fluorescence intensity (a.u.) |
| TATACTTTTTTTTGGGGTAAAGTTGTCAAAAGTGTCTATACGGAGTCACCTAGTGCAG | 8640 fluorescence intensity (a.u.) |
| TTCTACTCTCCCACTCCTCTCTAACCACTGTACTATATACCGGAGTCACCTAGTGCAG | 8610 fluorescence intensity (a.u.) |
| GCCCCGTGCCCATGCTGATTCCACCACCTCCCTGTAATCCCGGAGTCACCTAGTGCAG | 8100 fluorescence intensity (a.u.) |
| CCAATCACGTCCCACCGAATCGCCACGTCAGCTCTGGTCCCGGAGTCACCTAGTGCAG | 9010 fluorescence intensity (a.u.) |
| TGTGTCTCTTTCACAGCGACACCCGCCCTTGTTGCGTTGCCGGAGTCACCTAGTGCAG | 8120 fluorescence intensity (a.u.) |
| CTCTGGTTTTGTTTTCCAAGTTTCCTGCATTCCCGGATATCGGAGTCACCTAGTGCAG | 9340 fluorescence intensity (a.u.) |
| TCAGGTTATGCTCTACCAAGTTGGACTTTTTTTAGTTATACGGAGTCACCTAGTGCAG | 8690 fluorescence intensity (a.u.) |
| GCTCTCTCTCTCTCTCTCCCGCCGCCGCGCCAACCACCTCCGGAGTCACCTAGTGCAG | 12600 fluorescence intensity (a.u.) |
| AACTAAACTCGGCCATACTCTCATCCAGGTTGGAAGAATTCGGAGTCACCTAGTGCAG | 8290 fluorescence intensity (a.u.) |

Source: paper PMC7819943, “Rice protein-binding microarrays: a tool to detect cis-acting elements near promoter regions in rice”
